Source: US20170079989A1, “METHOD FOR TREATMENT OF OSTEOARTHRITIS AND OTHER JOINT RELATED INJURIES AND CONDITIONS” (priority 2010, published 2017)
For at least one compound, name, drawing or mass did not settle the structure.

Experiment: In vitro release (elution testing) of injectable formulations in sterile PBS at 37 degrees C.
Format: physicochemical
Details: drug encapsulated in SAIB nanoparticles suspended in hyaluronic acid solution, dialysis tubing, 50 rpm, UV-Vis
Experimental: About 21 mg of curcumin was dissolved in 2 ml of DMSO/SAIB (9:1 ratio of DMSO to SAIB in ethanol). The concentration of SAIB in the solution was about 104 mg per ml of DMSO/SAIB/Ethanol solution. This solution of curcumin/DMSO/SAIB/Ethanol was added drop wise to PBS while stirring. The nanoparticles of curcumin/SAIB formed when the DMSO/ethanol diffused out into the PBS (FIG. 3). 0.5 ml of the nanoparticle solution was then mixed with 2.5 ml of 1% Hyaluronic acid (HA) in PBS. The final mixture was then used for testing of injectability and for elution study.
Elution testing of various injectable formulations as described in example 2 was carried out in sterile PBS and at 37 degrees C. Drugs such as rapamycin, curcumin and sulfasalazine were used in the testing of various formulations. Each formulation was pipetted into a segment of dialysis tubing (Sigma Cat. D0530) with both ends of the tubing sealed. The dialysis tubing with the formulation was then placed inside a container and 15 ml of sterile PBS was added to the container. The container was then placed in an incubator shaker at 37 degrees C., 50 rpm and samples were withdrawn at regular time intervals and replaced with fresh sterile PBS. The samples were measured photometrically (UV-Vis) at a wavelength of 420 nanometers for curcumin, 359 nanometers for sulfasalazine and 278 nanometers for rapamycin.

Structure (SMILES): CO[C@H]1C[C@@H]2CC[C@@H](C)[C@@](O)(O2)C(=O)C(=O)N2CCCC[C@H]2C(=O)O[C@H]([C@H](C)C[C@@H]2CC[C@@H](O)[C@H](OC)C2)CC(=O)[C@H](C)/C=C(\C)[C@@H](O)[C@@H](OC)C(=O)[C@H](C)C[C@H](C)/C=C/C=C/C=C/1C [rapamycin, Rapamycin]
- release kinetics of drug from the injectable formulation: dependent on the amount of hydro gel in the solution of the injectable formulation
